For at least one compound, name, drawing or mass did not settle the structure.
Tested on: Yap phosphorylation
Experiment: Yap phosphorylation in cultured utricles by western blot
Type: cell-based
Conditions: utricles from adult mice

Structure (SMILES): O=C(/N=c1\sccn1Cc1ccccc1)c1c[nH]c2ncccc12
- level of Yap phosphorylation as detected by western blot: striking reduction

Source: patent publication US20240343726A1, “PYRROLOPYRIDINE-3- AND 4-CARBOXAMIDE COMPOSITIONS AND METHODS FOR CELLULAR PROLIFERATION” (The Rockefeller University, priority 2021, published 2024)
